This note sets out measurements from PubChem BioAssay AID248 (DTP/NCI, 2004).

The list is a part of this screen's results and no random one: it gathers tests that were run many times, whatever their T/C, doses with no T/C, and many T/C values between a quarter and a half above the control. Other doses and runs of a compound stand elsewhere. T/C: endpoint of the treated group in % of that of the vehicle group. Some doses have a count of surviving animals in place of a T/C: the source files T/C as zero there, which appears to mark a toxic dose or a test without result, not a measured value. Some survivor counts are full or nearly so, which does not show that the dose was tolerated: the source hardly ever lists a survival T/C far under the control, and the zero likely stands for such cases as well. Survivors were counted at the toxicity check, usually on the fifth day, unless a day is given; later deaths do not show. Schedules are NCI's codes, taken here to give the interval after Q, in days (D) or hours (H), and the number of doses after X. For survival time, this PubChem deposit counts one and a half times the control or more as active, and values a quarter to a half above the control carry no call in these data; other NCI protocols may use other cut-offs. Some doses were run more than once; their values stand side by side, smallest first. Some T/C values are followed by the survivors on the day toxicity was checked, most often the fifth; where none is given, no animal had died by that day.

The subject of the test is L1210 leukemia ip in BDF1 mice, survival T/C. The experiment in a line: NCI In Vivo Anticancer Drug Screen. Data for tumor model L1210 Leukemia (intraperitoneal) in B6D2F1 (BDF1) mice. The following applies: higher T/C = longer survival.
Where [1] appears, read: T/C endpoint: mean survival time, dose: 66.0 mg/kg/injection, schedule: Q01DX015 (ip), vehicle: carboxymethylcellulose (CMC).
Where [2] appears, read: T/C endpoint: mean survival time, dose: 400.0 mg/kg/injection, schedule: Q01DX009 (ip), vehicle: Klucel (hydroxypropylcellulose) (HPC).

`NNc1ncnc2c1ncn2C1OC(CO)C(O)C1O` (centres undefined): the T/C (T/C endpoint: mean survival time, dose: 36.5 mg/kg/injection, schedule: Q01DX015 (ip), vehicle: gum acacia, evaluated on day 5) is 127 % of control; the T/C (T/C endpoint: mean survival time, dose: 36.5 mg/kg/injection, schedule: Q01DX015 (ip), vehicle: gum acacia, evaluated on day 45) was 127 % of control; the T/C (T/C endpoint: mean survival time, dose: 50.0 mg/kg/injection, schedule: Q01DX015 (ip), vehicle: carboxymethylcellulose (CMC)) is 135 % of control; the T/C (T/C endpoint: mean survival time, dose: 56.0 mg/kg/injection, schedule: Q01DX015 (ip), vehicle: gum acacia, evaluated on day 5) was 126 % of control; the T/C (T/C endpoint: mean survival time, dose: 56.0 mg/kg/injection, schedule: Q01DX015 (ip), vehicle: gum acacia, evaluated on day 45) is 126 % of control; the T/C under setting [1] is 136 % of control. The T/C runs as follows: (T/C endpoint: mean survival time, dose: 75.0 mg/kg/injection, schedule: Q01DX015 (ip), vehicle: carboxymethylcellulose (CMC)) 131 % of control; (T/C endpoint: mean survival time, dose: 83.0 mg/kg/injection, schedule: Q01DX015 (ip), vehicle: gum acacia, evaluated on day 5) 136 % of control; (T/C endpoint: mean survival time, dose: 83.0 mg/kg/injection, schedule: Q01DX015 (ip), vehicle: gum acacia, evaluated on day 45) 136 % of control; (T/C endpoint: mean survival time, dose: 100.0 mg/kg/injection, schedule: Q01DX015 (ip), vehicle: carboxymethylcellulose (CMC)) 136 % of control; (T/C endpoint: mean survival time, dose: 124.5 mg/kg/injection, schedule: Q01DX015 (ip), vehicle: gum acacia, evaluated on day 5) 143 % of control; (T/C endpoint: mean survival time, dose: 124.5 mg/kg/injection, schedule: Q01DX015 (ip), vehicle: gum acacia, evaluated on day 45) 143 % of control. Moreover, for the setting “T/C endpoint: mean survival time, dose: 150.0 mg/kg/injection, schedule: Q01DX015 (ip), vehicle: carboxymethylcellulose (CMC)”, the T/C is 136 % of control. The survivor count is recorded as 2 of 6 under setting [1]; 8 of 10 (T/C endpoint: mean survival time, dose: 186.75 mg/kg/injection, schedule: Q01DX015 (ip), vehicle: gum acacia); 0 of 6 (T/C endpoint: mean survival time, dose: 200.0 mg/kg/injection, schedule: Q01DX015 (ip), vehicle: carboxymethylcellulose (CMC)); 0 of 6 (T/C endpoint: mean survival time, dose: 250.0 mg/kg/injection, schedule: Q01DX015 (ip), vehicle: carboxymethylcellulose (CMC)); 2 of 4 (T/C endpoint: mean survival time, dose: 400.0 mg/kg/injection, schedule: Q01DX001 (ip), vehicle: carboxymethylcellulose (CMC)).
On to `C=CS(=O)(=O)CC`, for which the survivor count (T/C endpoint: mean survival time, dose: 100.0 mg/kg/injection, schedule: Q04DX002 (ip), vehicle: saline) is 1 of 3; the survivor count (T/C endpoint: mean survival time, dose: 200.0 mg/kg/injection, schedule: Q04DX002 (ip), vehicle: saline) is on record as 1 of 3; the survivor count (T/C endpoint: mean survival time, dose: 400.0 mg/kg/injection, schedule: Q04DX002 (ip), vehicle: saline) was 1 of 3.
As to `Clc1cc(Cl)c(I)c(Cl)c1`, the survivor count under setting [2] is 6 of 6.
Turning to `C[N+]1(C)CCC(OC(=O)C(O)(c2ccccc2)C2CCCC2)C1` (centres undefined), the survivor count (T/C endpoint: mean survival time, dose: 200.0 mg/kg/injection, schedule: Q04DX003 (ip), vehicle: saline with Tween-80) was 0 of 3 and the survivor count (T/C endpoint: mean survival time, dose: 400.0 mg/kg/injection, schedule: Q04DX003 (ip), vehicle: saline with Tween-80) was 0 of 3.
On to `CCOP(=O)(CCN(C(C)C)C(C)C)OCC`, for which the survivor count is 6 of 6 (T/C endpoint: mean survival time, dose: 200.0 mg/kg/injection, schedule: Q04DX003 (ip), vehicle: Klucel (hydroxypropylcellulose) (HPC)) and 5 of 6 (T/C endpoint: mean survival time, dose: 400.0 mg/kg/injection, schedule: Q04DX003 (ip), vehicle: Klucel (hydroxypropylcellulose) (HPC)).
On to `Cc1nc(N)nc(N)c1-c1ccc(Cl)c(Cl)c1`, for which the T/C is, setting by setting: (T/C endpoint: mean survival time, dose: 2.0 mg/kg/injection, schedule: Q01DX009 (ip), vehicle: saline with Tween-80) 125 % of control; (T/C endpoint: mean survival time, dose: 2.0 mg/kg/injection, schedule: Q01DX010 (sc), vehicle: other) 139 % of control; (T/C endpoint: mean survival time, dose: 4.0 mg/kg/injection, schedule: Q01DX009 (ip), vehicle: saline with Tween-80) 127 % of control; (T/C endpoint: mean survival time, dose: 4.0 mg/kg/injection, schedule: Q04DX009 (ip), vehicle: Klucel (hydroxypropylcellulose) (HPC)) 126 % of control; (T/C endpoint: mean survival time, dose: 5.0 mg/kg/injection, schedule: Q01DX010 (sc), vehicle: other) 131 % of control; (T/C endpoint: mean survival time, dose: 8.4 mg/kg/injection, schedule: Q01DX009 (ip), vehicle: saline) 127 % of control. Besides, the T/C (T/C endpoint: mean survival time, dose: 50.0 mg/kg/injection, schedule: Q04DX003 (ip), vehicle: saline) is 132 % of control. Also, the survivor count (T/C endpoint: mean survival time, dose: 100.0 mg/kg/injection, schedule: Q01DX001 (ip), vehicle: saline) is recorded as 5 of 6.
Turning to `N=c1nc2n(cc1F)[C@@H]1O[C@H](CO)[C@@H](O)[C@@H]1O2`, the T/C is 134 and 135 % of control (T/C endpoint: mean survival time, dose: 100.0 mg/kg/injection, schedule: Q04DX002 (ip), vehicle: Klucel (hydroxypropylcellulose) (HPC)); 138 and 145 % of control (T/C endpoint: mean survival time, dose: 200.0 mg/kg/injection, schedule: Q04DX002 (ip), vehicle: Klucel (hydroxypropylcellulose) (HPC)); 125 and 129 % of control (T/C endpoint: mean survival time, dose: 400.0 mg/kg/injection, schedule: Q01DX001 (ip), vehicle: saline); 139 % of control under setting [2]; 136 and 145 % of control (T/C endpoint: mean survival time, dose: 800.0 mg/kg/injection, schedule: Q01DX001 (ip), vehicle: saline); 137 % of control (T/C endpoint: mean survival time, dose: 1200.0 mg/kg/injection, schedule: Q01DX001 (ip), vehicle: Klucel (hydroxypropylcellulose) (HPC)). The T/C (T/C endpoint: mean survival time, dose: 1200.0 mg/kg/injection, schedule: Q01DX001 (ip), vehicle: saline) is 141 and 142 % of control; the T/C (T/C endpoint: mean survival time, dose: 1600.0 mg/kg/injection, schedule: Q01DX001 (ip), vehicle: Klucel (hydroxypropylcellulose) (HPC)) was 126 % of control; the T/C (T/C endpoint: mean survival time, dose: 1600.0 mg/kg/injection, schedule: Q01DX001 (ip), vehicle: saline) was 146 [5 of 6 alive] and 147 % of control; the T/C (T/C endpoint: mean survival time, dose: 2000.0 mg/kg/injection, schedule: Q01DX001 (ip), vehicle: saline) was 149 % of control; the T/C (T/C endpoint: median survival time, dose: 800.0 mg/kg/injection, schedule: Q01DX001 (oral), vehicle: water) is 130 % of control [7 of 8 alive]; the T/C (T/C endpoint: median survival time, dose: 1200.0 mg/kg/injection, schedule: Q01DX001 (ip), vehicle: water) is 144 % of control [7 of 8 alive]. In addition, the T/C (T/C endpoint: median survival time, dose: 1200.0 mg/kg/injection, schedule: Q01DX001 (oral), vehicle: water) is 130 % of control [6 of 8 alive]. For the same molecule, the survivor count reads like this: (T/C endpoint: median survival time, dose: 200.0 mg/kg/injection, schedule: Q03HX024 (ip), vehicle: water) 8 of 8; (T/C endpoint: median survival time, dose: 400.0 mg/kg/injection, schedule: Q03HX024 (ip), vehicle: water) 5 of 8; (T/C endpoint: median survival time, dose: 800.0 mg/kg/injection, schedule: Q01DX009 (ip), vehicle: water) 7 of 8; (T/C endpoint: median survival time, dose: 800.0 mg/kg/injection, schedule: Q03HX024 (ip), vehicle: water) 1 of 8; (T/C endpoint: median survival time, dose: 1600.0 mg/kg/injection, schedule: Q01DX001 (ip), vehicle: water) 5 of 8; (T/C endpoint: median survival time, dose: 1600.0 mg/kg/injection, schedule: Q01DX001 (oral), vehicle: water) 4 of 8. The survivor count reads like this: (T/C endpoint: median survival time, dose: 2000.0 mg/kg/injection, schedule: Q01DX001 (ip), vehicle: water) 3 of 8; (T/C endpoint: median survival time, dose: 2000.0 mg/kg/injection, schedule: Q01DX001 (oral), vehicle: water) 3 of 8.
For `C[C@@H]1CCC[C@@H](NC(=O)N(CCCl)N=O)C1`, the T/C (T/C endpoint: mean survival time, dose: 23.0 mg/kg/injection, schedule: Q01DX001 (ip), vehicle: saline with Tween-80) was 131 % of control. Also, the survivor count (T/C endpoint: mean survival time, dose: 300.0 mg/kg/injection, schedule: Q01DX009 (ip), vehicle: Klucel (hydroxypropylcellulose) (HPC)) is given as 5 of 6.
For the molecule `O=C1NNC(=O)C2C3CCC(C3)C12` (centres undefined), the survivor count is 2 of 6 (T/C endpoint: mean survival time, dose: 100.0 mg/kg/injection, schedule: Q01DX009 (ip), vehicle: saline) and 1 of 6 (T/C endpoint: mean survival time, dose: 200.0 mg/kg/injection, schedule: Q01DX009 (ip), vehicle: saline).
